The source of these data is patent US20120009131A1, “METHOD FOR PREVENTING OR TREATING AMYLOID BETA PEPTIDE-ASSOCIATED DISEASES OR CONDITIONS, AND METHOD FOR INHIBITING FORMATION, ACCUMULATION OR AGGREGATION OF AMYLOID BETA PEPTIDES” (Sinphar Tian-Li Pharmaceutical Co., Ltd. (Hangzhou), priority 2010, published 2012).

Each structure is given as a SMILES string.

In test [1] the test system is SD rats infused intracerebroventricularly with Aβ1-42. Nature of the test: Dopamine (DA) and metabolites DOPAC and HVA levels in brain cortex and hippocampus of rats. In kind it is in vivo, rat. The conditions noted are these: for DA level / DOPAC level / HVA level: oral 0.75 mg/kg, mean±SD. The protocol: (§1) The rats were anesthetized for implantation of an infusion cannula into the left cerebral ventricle thereof. After sewing up the incisions, the rats were returned to their cages. FIG. 7 illustrates the experimental schedule for animal studies. The exploration behavior tests were carried out on day 7, the passive avoidance learning tests were carried out on day 8 and 9, the water maze tests were carried on day 10 to 13, and the probe tests were carried out on day 14, after the start of Aβ1-42 infusion. […] The test samples were administered orally to the rats, 1 hour before the tests (i.e., the exploration behavior tests, the passive avoidance learning tests, and the water maze tests) throughout the experimental period. […] All the test samples were prepared freshly with deionized distilled water (ddH2O) every day, and were administered orally by stomach tube.
(§2) Significant difference between the Aβ1-42 control group and the other experimental groups were indicated by *., P<0.05, *.*, P<0.01, and. ***., P<0.001.
After the water maze performance tests, all rats were decapitated and their brains were rapidly removed from the skull. According to Glowinski and Iversen, the brain cortex and hippocampus were separated, and then each cortex and hippocampus were weighed and were homogenized by addition of 50 mM Na-phosphate buffer (pH 7.8) for analyzing the concentrations of neurotransmitters and the levels of enzymes.

For test [2] the test system is unchanged. Nature of the test: Acetylcholine and choline levels in brain cortex and hippocampus of rats. In kind it is in vivo, rat. Particulars: oral; D 2.5 and 5 mg/kg, Aricept 0.75 mg/kg. As for the experimental part: as §1, §2
After the water maze performance tests, all rats were decapitated and their brains were rapidly removed from the skull. […]

As to `COc1cc2c(cc1OC)C(=O)C(CC1CCN(Cc3ccccc3)CC1)C2` (centres unmarked) [Aricept, reference compound], in test [1] (brain cortex), the DA level is reported as 3.10 ± 0.46, the DOPAC level was 10.49 ± 2.38 and the HVA level is given as 2.42 ± 0.78. In test [1] (brain hippocampus), the DA level is 1.33 ± 0.37, the DOPAC level is on record as 3.19 ± 1.00 and the HVA level turned out to be 2.45 ± 0.33. In test [1] (oral, D 2.5 and 5 mg/kg, Aricept 0.75 mg/kg), the “DA levels in the cortex and hippocampus (in words)” value is given as “reverse the decrease in DA levels”. The “acetylcholine levels in the brain cortex and hippocampus” value in test [2] is recorded as “reverse the decrease in acetylcholine levels”.
